In patent US20100081799A1 (priority 2006, published 2010):

Assay: general procedure: Fmoc solid-phase peptide synthesis; TCP-resin

| Substance | final HPLC purity (whole synthesis, RP-HPLC) [% purity] | conjugation yield (conjugation step) [%] | crude HPLC purity (conjugation step, RP-HPLC) [% purity] | final HPLC purity (conjugation step, RP-HPLC) [% purity] |
| --- | --- | --- | --- | --- |
| cyclo[2,7]-3-(3-azidopropylcarbamoyl)propanoyl-D-Phe-Cys-Tyr-D-Trp-Lys-Thr-Cys-Thr-OH | 96 | – | – | – |
| cyclo[2,7]-AoxAc-D-Phe-Cys-Tyr-D-Trp-Lys-Thr-Cys-Thr-OH | 97 | – | – | – |
| 3-(3-Azidopropylcarbamoyl)propanoyl-Tyr-Glu-Trp-Lys | 97 | – | – | – |
| DOTA-Tyr-Glu-Trp-Lys derivative 26 | – | 51 | 76 | 95 |
